The list shows a part of the results. Single values are uncertain, as repeats are few or missing.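 The apoptosis fraction was the count of cleaved-PARP antibody-stained nuclei relative to all DNA-stained nuclei, imaged in 1,536-well plates. Screening doses were set so most cells survived, and baseline and induced cleaved-PARP levels vary greatly across cell lines.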
Each molecule was assayed on WM1716 (assay: cleaved PARP positive nuclei fraction relative to DMSO control; melanoma cells; higher = more apoptosis). Settings: library dose: low library concentration; 72 h.

Structure (SMILES)	cleaved PARP positive nuclei fraction [%]
CC(=O)c1c(C)c2cnc(Nc3ccc(N4CCNCC4)cn3)nc2n(C2CCCC2)c1=O [palbociclib] + COc1ccc(-c2ccc3c(N4CCOCC4)nc(N4C[C@@H](C)O[C@@H](C)C4)nc3n2)cc1CO [KU0063794] (first compound 0.04 µM, partner dose 0.02 µM)	576
CC(=O)c1c(C)c2cnc(Nc3ccc(N4CCNCC4)cn3)nc2n(C2CCCC2)c1=O [palbociclib] + COc1ccc(Cl)c(Nc2nc3ccccc3nc2NS(=O)(=O)c2cccc(NC(=O)C(C)(C)N)c2)c1 [XL147] (first compound 0.04 µM, partner dose 0.8 µM)	102
C=CCn1c(=O)c2cnc(Nc3ccc(N4CCN(C)CC4)cc3)nc2n1-c1cccc(C(C)(C)O)n1 + Cn1cncc1[C@@](N)(c1ccc(Cl)cc1)c1ccc2c(c1)c(-c1cccc(Cl)c1)cc(=O)n2C [tipifarnib] (first compound 0.02 µM, partner dose 0.01 µM)	24.6
Cc1cc(N2CCOCC2)cc2[nH]c(-c3c(NC[C@@H](O)c4cccc(Cl)c4)cc[nH]c3=O)nc12 + Cn1cc(/C=C2\C(=O)Nc3cccnc32)c2ccccc21 [GW441756] (first compound 0.2 µM, partner dose 0.4 µM)	164
CC(=O)c1c(C)c2cnc(Nc3ccc(N4CCNCC4)cn3)nc2n(C2CCCC2)c1=O [palbociclib] + COc1cc2ncnc(Nc3ccc(Oc4ccccc4)cc3)c2cc1OC [SrcI1] (first compound 0.04 µM, partner dose 2 µM)	181
OCc1c[nH]c2ccccc12 [Indole-3-carbinol] + C[C@@H]1CCN(C(=O)CC#N)C[C@@H]1N(C)c1ncnc2[nH]ccc12 [CP690550] (first compound 0.8 µM, partner dose 1 µM)	82.4
O=C(CCCCCCC(=O)Nc1ccccc1)NO [vorinostat] + N#Cc1c(O)c2c(-c3ccc(-c4ccccc4O)cc3)csc2[nH]c1=O [A769662] (first compound 0.08 µM, partner dose 2 µM)	56.7
C[C@@H]1CCN(C(=O)CC#N)C[C@@H]1N(C)c1ncnc2[nH]ccc12 + O=S(=O)(c1ccccc1)N(CC(F)(F)F)c1ccc(C(O)(C(F)(F)F)C(F)(F)F)cc1 [T0901317] (first compound 1 µM, partner dose 1.4 µM)	57.9
NC(=O)Nc1cc(-c2cccc(F)c2)sc1C(=O)N[C@H]1CCCNC1 + COC(=O)c1sccc1S(=O)(=O)Nc1ccc(Nc2ccccc2)cc1OC [GSK0660] (first compound 0.02 µM, partner dose 1 µM)	30.9
C[C@]1(c2nc3c(C(N)=O)cccc3[nH]2)CCCN1 [Veliparib] + O=C(Nc1cccc(Cl)c1)Nc1ncc(CCNc2ncnc3ccsc23)s1 [SNS314] (first compound 1.4 µM, partner dose 0.0008 µM)	42
C[C@]1(c2nc3c(C(N)=O)cccc3[nH]2)CCCN1 [Veliparib] + OCCn1cc(-c2cnc3nnn(Cc4ccc5ncccc5c4)c3n2)cn1 [PF04217903] (first compound 1.4 µM, partner dose 1 µM)	59
COc1cc(Nc2ncc(F)c(Nc3ccc4c(n3)NC(=O)C(C)(C)O4)n2)cc(OC)c1OC [Tamatinib] + CC(C)(C)c1cnc(CSc2cnc(NC(=O)C3CCNCC3)s2)o1 [SNS-032] (first compound 0.4 µM, partner dose 0.01 µM)	172
NC(=O)Nc1cc(-c2cccc(F)c2)sc1C(=O)N[C@H]1CCCNC1 + O=C(Nc1ccccc1)c1cc([N+](=O)[O-])ccc1Cl [GW9662] (first compound 0.02 µM, partner dose 2 µM)	294
C#Cc1cccc(Nc2ncnc3cc(OCCOC)c(OCCOC)cc23)c1 [erlotinib] + Cn1c(Nc2ccc(C(F)(F)F)cc2)nc2cc(Oc3ccnc(-c4ncc(C(F)(F)F)[nH]4)c3)ccc21 [CHIR265] (first compound 0.8 µM, partner dose 0.08 µM)	265
C#Cc1cccc(Nc2ncnc3cc(OCCOC)c(OCCOC)cc23)c1 [erlotinib] + C=CCn1c(=O)c2cnc(Nc3ccc(N4CCN(C)CC4)cc3)nc2n1-c1cccc(C(C)(C)O)n1 [MK1775] (first compound 0.8 µM, partner dose 0.02 µM)	123
COCC[n+]1c2c(n(Cc3cnccn3)c1C)C(=O)c1ccccc1C2=O + COC(=O)c1sccc1S(=O)(=O)Nc1ccc(Nc2ccccc2)cc1OC [GSK0660] (first compound 0.0004 µM, partner dose 1 µM)	91.1
NC(=O)Nc1cc(-c2cccc(F)c2)sc1C(=O)N[C@H]1CCCNC1 + COc1ccc(COc2ccc(Cc3cnc(N)nc3N)cc2OC)cc1 [GW2580] (first compound 0.02 µM, partner dose 1 µM)	123
Cc1cc(N2CCOCC2)cc2[nH]c(-c3c(NC[C@@H](O)c4cccc(Cl)c4)cc[nH]c3=O)nc12 + CN(C)S(=O)(=O)c1ccc2c(c1)/C(=C/c1cc3c([nH]1)CCCC3)C(=O)N2 [SU6656] (first compound 0.2 µM, partner dose 0.4 µM)	117
C[C@@H]1CCN(C(=O)CC#N)C[C@@H]1N(C)c1ncnc2[nH]ccc12 + O=C1NC(=O)/C(=C/c2ccc(-c3ccc(F)cc3O)o2)S1 [AS252424] (first compound 1 µM, partner dose 1 µM)	80.6
NC(=O)Nc1cc(-c2cccc(F)c2)sc1C(=O)N[C@H]1CCCNC1 + CC(C)CCN1c2nc(Nc3cc(F)c(O)c(F)c3)ncc2N(C)C(=O)C1C [BID1870] (first compound 0.02 µM, partner dose 0.2 µM)	199
CO[C@@H]1[C@H](N(C)C(=O)c2ccccc2)C[C@H]2O[C@]1(C)n1c3ccccc3c3c4c(c5c6ccccc6n2c5c31)C(=O)NC4 [Midostaurin] + Cc1cc([N+](=O)[O-])ccc1NS(=O)(=O)c1cc(Cl)ccc1Cl [FH535] (first compound 0.08 µM, partner dose 1 µM)	69.4
CO[C@@H]1[C@H](N(C)C(=O)c2ccccc2)C[C@H]2O[C@]1(C)n1c3ccccc3c3c4c(c5c6ccccc6n2c5c31)C(=O)NC4 [Midostaurin] + O=C(O)C(=O)Nc1sc2c(c1C(=O)O)CCNC2 [TCS401] (first compound 0.08 µM, partner dose 1.66667 µM)	124
Cn1nnc2c(C(N)=O)ncn2c1=O [temozolomide] + Cn1cc(/C=C2\C(=O)Nc3cccnc32)c2ccccc21 [GW441756] (first compound 2 µM, partner dose 0.4 µM)	56.4
CC(C)(C)c1cnc(CSc2cnc(NC(=O)C3CCNCC3)s2)o1 + O=C(O)c1ccc(-c2c[nH]c3ncc(-c4ccccc4)cc23)cc1C1CCCC1 [GSK650394] (first compound 0.01 µM, partner dose 0.16 µM)	111
O=C(CCCCCCC(=O)Nc1ccccc1)NO [vorinostat] + CC(C)(C)c1cnc(CSc2cnc(NC(=O)C3CCNCC3)s2)o1 [SNS-032] (first compound 0.08 µM, partner dose 0.01 µM)	113
C=CCNC1=C2C[C@@H](C)C[C@H](OC)[C@H](O)[C@@H](C)/C=C(\C)[C@H](OC(N)=O)[C@@H](OC)/C=C\C=C(/C)C(=O)NC(=CC1=O)C2=O [Tanespimycin] + CC(C)(C)c1cnc(CSc2cnc(NC(=O)C3CCNCC3)s2)o1 [SNS-032] (first compound 0.002 µM, partner dose 0.01 µM)	94.6
CC(=O)c1c(C)c2cnc(Nc3ccc(N4CCNCC4)cn3)nc2n(C2CCCC2)c1=O [palbociclib] + OCCn1cc(-c2cnc3nnn(Cc4ccc5ncccc5c4)c3n2)cn1 [PF04217903] (first compound 0.04 µM, partner dose 1 µM)	144
C=CCNC1=C2C[C@@H](C)C[C@H](OC)[C@H](O)[C@@H](C)/C=C(\C)[C@H](OC(N)=O)[C@@H](OC)/C=C\C=C(/C)C(=O)NC(=CC1=O)C2=O [Tanespimycin] + CN(NC(=O)CC(=O)NN(C)C(=S)c1ccccc1)C(=S)c1ccccc1 [STA4783] (first compound 0.002 µM, partner dose 0.006 µM)	285
CC1(C)NC(=O)N(c2ccc([N+](=O)[O-])c(C(F)(F)F)c2)C1=O [nilutamide] + CCCCCCCCCCCC1=C(O)C(=O)C=C(O)C1=O [Embelin] (first compound 1 µM, partner dose 1.2 µM)	135
Cn1c(Nc2ccc(C(F)(F)F)cc2)nc2cc(Oc3ccnc(-c4ncc(C(F)(F)F)[nH]4)c3)ccc21 + COCC[n+]1c2c(n(Cc3cnccn3)c1C)C(=O)c1ccccc1C2=O [YM155] (first compound 0.08 µM, partner dose 0.0004 µM)	90.2

2 entries drawn at random from those above:
Structure (SMILES)	cleaved PARP positive nuclei fraction [%]
CC1(C)NC(=O)N(c2ccc([N+](=O)[O-])c(C(F)(F)F)c2)C1=O [nilutamide] + CCCCCCCCCCCC1=C(O)C(=O)C=C(O)C1=O [Embelin] (first compound 1 µM, partner dose 1.2 µM)	135
NC(=O)Nc1cc(-c2cccc(F)c2)sc1C(=O)N[C@H]1CCCNC1 + COC(=O)c1sccc1S(=O)(=O)Nc1ccc(Nc2ccccc2)cc1OC [GSK0660] (first compound 0.02 µM, partner dose 1 µM)	30.9
